Experimental data as given in patent US20030186943A1, “Substituted gamma-phenyl-delta-lactams and uses related thereto” (Inflazyme Pharmaceuticals Ltd., priority 1998, published 2003).
Some results were stated once for a whole list of compounds, not compound by compound.

Tested on: naive CD4+ T-cells
Assay: Naive CD4+ T-cell proliferation (AND-TCR transgenic)
Format: cell-based, mouse
Description: AND-TCR transgenic mice (Kaye J. et al., Nature 341:746-749, 1989) were used to provide a source of naive-antigen specific CD4+T cells. The AND-T cell antigen receptor recognizes a peptide derived from pigeon cytochrome C (pcc) in the context of the I-E^k class II MHC molecule.
To examine the role of a test compound in naive CD4 T cell activation and proliferation, 1×10^5 AND-lymph node T cells were cultured with 1×10^6 irradiated B10.BR spleen cells in the presence of varying concentrations of pcc peptide (0-10 μM) in 96 well plates. Proliferation was assessed by ^3H thymidine incorporation. All assay conditions were conducted in triplicate. Cell surface activation phenotype of T cells was assessed by flow cytometric analysis.

COc1ccc([C@H]2COC(=O)C(Cc3ccc(OC4CCCC4)c(OC)c3)C2)cc1OC (some centres unmarked) [Compound 136]
inhibition of naive CD4+ T-cells proliferation (@5 μM): greater than 70%
inhibition of naive T-cells (summary of ex vivo studies) (concentration not given): >= 80%
